Assay results taken from the supplement of paper PMC11546906.
The other results are listed elsewhere or left out. This data set is noisy: repeats of one test often differ as much as different tests do.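 FDA-approved drugs were each paired with colistin at one-eighth its MIC and screened against a multidrug-resistant, mcr-1-positive clinical E. coli isolate, with OD600 read after 24 h. Drug-free bacteria served as growth control, plain broth as blank. Combinations were active if OD600 dropped below 0.2.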

These molecules were tested on Escherichia coli 42 (mcr-1-positive clinical isolate) (assay: OD600 after 24 h growth with compound plus colistin (absorbance units (OD600)); higher = more bacterial growth (less inhibition)). Settings: first compound 25 µM; colistin concentration 0.5 ug/mL; incubation time 24 h; 37 °C.
With `O=C1CCc2cc(OCCCCc3nnnn3C3CCCCC3)ccc2N1` [Cilostazol] + CCC(C)CCCC(=O)N[C@@H](CCN)C(=O)N[C@H](C(=O)N[C@@H](CCN)C(=O)N[C@H]1CCNC(=O)[C@H]([C@@H](C)O)NC(=O)[C@H](CCN)NC(=O)[C@H](CCN)NC(=O)[C@H](CC(C)C)NC(=O)[C@@H](CC(C)C)NC(=O)[C@H](CCN)NC1=O)[C@@H](C)O [colistin] the OD600 was inactive: 1.09.
In the case of `C[C@H]1CN(C[C@H](Cc2ccccc2)C(=O)NCC(=O)O)CC[C@@]1(C)c1cccc(O)c1` [Alvimopan] + CCC(C)CCCC(=O)N[C@@H](CCN)C(=O)N[C@H](C(=O)N[C@@H](CCN)C(=O)N[C@H]1CCNC(=O)[C@H]([C@@H](C)O)NC(=O)[C@H](CCN)NC(=O)[C@H](CCN)NC(=O)[C@H](CC(C)C)NC(=O)[C@@H](CC(C)C)NC(=O)[C@H](CCN)NC1=O)[C@@H](C)O [colistin], the OD600 is reported as inactive: 1.14.
With `O=C1CN(/N=C/c2ccc([N+](=O)[O-])o2)C(=O)N1` [Nitrofurantoin] + CCC(C)CCCC(=O)N[C@@H](CCN)C(=O)N[C@H](C(=O)N[C@@H](CCN)C(=O)N[C@H]1CCNC(=O)[C@H]([C@@H](C)O)NC(=O)[C@H](CCN)NC(=O)[C@H](CCN)NC(=O)[C@H](CC(C)C)NC(=O)[C@@H](CC(C)C)NC(=O)[C@H](CCN)NC1=O)[C@@H](C)O [colistin] the OD600 was inactive: 0.939.
With `CCOc1nc2cccc(C(=O)O)c2n1Cc1ccc(-c2ccccc2-c2nnn[nH]2)cc1` [Candesartan] + CCC(C)CCCC(=O)N[C@@H](CCN)C(=O)N[C@H](C(=O)N[C@@H](CCN)C(=O)N[C@H]1CCNC(=O)[C@H]([C@@H](C)O)NC(=O)[C@H](CCN)NC(=O)[C@H](CCN)NC(=O)[C@H](CC(C)C)NC(=O)[C@@H](CC(C)C)NC(=O)[C@H](CCN)NC1=O)[C@@H](C)O [colistin] the OD600 was inactive: 1.15.
